For at least one compound, name, drawing or mass did not settle the structure.
Assays:
Mino-1 xenograft = assay: tumor growth inhibition in Mino-1 xenograft mouse model; assay type: in vivo; conditions: tazemetostat + ibrutinib; Mino-1 xenograft (FIG. 13)
KMS-28-BM = assay: 7 day pretreatment + 4-day co-treatment combination model (Cell Titer Glo); conditions: dexamethasone + tazemetostat 31.25-500 nM, 11-day combination model (FIG. 1)

Row | Compound | combination effect on tumor growth (Mino-1 xenograft) | curve shift analysis of combination (KMS-28-BM)
1 | C=CC(=O)N1CCC[C@@H](n2nc(-c3ccc(Oc4ccccc4)cc3)c3c(N)ncnc32)C1 [Ibrutinib, ibrutinib] | strong synergy | 
2 | C[C@@H]1C[C@H]2[C@@H]3CCC4=CC(=O)C=C[C@]4(C)[C@@]3(F)[C@@H](O)C[C@]2(C)[C@@]1(O)C(=O)CO [Dexamethasone, dexamethasone] |  | synergy

From US20240293418A1, “COMBINATION THERAPY FOR TREATING CANCER” (Epizyme, Inc., priority 2016, published 2024)
